Laboratory results published in article PMC10258794 (Journal of Medicinal Chemistry, 2023).

Assay: general procedure: Fmoc solid-phase peptide synthesis; Tentagel S RAM resin (0.22–[…]); DIC/Oxyma
Settings: whole synthesis, TFA salt

Substance | isolated yield
(*)KkLLKLLKLLL | 3.9%
(*)KkLlKLLKLLL | 6.1%
(*)KkllKLLKLLL | 7.7%
(*)RRLLRLLRLLL | 7.3%
(*)kKLLKLLKLLl | 5.8%
(*)kkLLKLLKLLL | 0.8%
(*)kkLLKLLKLLl | 4.6%
(KKLLKLLKLLL)2 | 38.3%
KKIIKIIKIII | 31.6%
KKLLKLLKLLL | 58.0%
KKLLKllKLLL | 44.4%
KKLLkllKLLL | 57.5%
KKLLkllkLLL | 42.1%
KKLlkLLkLLl | 66.2%
KKLlkLLklLL | 18.0%
KKLlkllkLLL | 53.4%
KKlLkLlKlLL | 38.8%
KKllKLLklLL | 46.3%
KKllKLlKLlL | 46.9%
KKllKllKLLL | 37.9%
KKllKllKlLL | 34.9%
KKllKllKlll | 44.6%
KkLLKLLKLLL | 47.7%

Substance | isolated yield
KkLLkLLKLLL | 45.1%
KkLlKLLKLLL | 38.3%
KkLlKlLkLlL | 32.1%
KklLKLLKllL | 26.1%
KklLKlLKlLL | 65.7%
KkllKLLKLLL | 42.2%
KkllKLlKLLL | 35.4%
KkllKlLKLLL | 30.1%
KkllKllKLLL | 49.2%
RRIIRIIRIII | 6.5%
RRLLRLLRLLL | 27.5%
kKLLKLLKLLl | 44.2%
kKLLkllKLLl | 41.0%
kKlLkLlKlLl | 40.8%
kkLLKLLKLLL | 51.0%
kkLLKLLKLLl | 54.5%
kkLLKLLKLll | 32.7%
kkLLkLLKLLL | 45.0%
kkLLkLLKLLl | 47.7%
kkLLkLLKLll | 47.3%
kkLLkLLkLLL | 70.9%
kkLLkLLkLLl | 48.3%
kkllkllklll | 24.1%

Where a sequence shows no end group, the ends are not given.
